Results: article PMC7819943, “Rice protein-binding microarrays: a tool to detect cis-acting elements near promoter regions in rice”
The list shows a part of the results.

biological target: T1, OsSMF1 (Oryza sativa, UniProt Q6ZLB0 1-436); assay: protein-binding microarray (RPBM); PBS, 2% BSA, 51.3 ng/ul salmon testes DNA, 50 uM zinc acetate, 200 nM TF, 25 C, 1 h; high values mean tight binding; conditions: protein: recombinant; tags: N-terminal polyhistidine and DsRed monomer fusion (pET32a); chain copies: 2; label: CyDye5-dUTP incorporated in the synthesized complementary strand; 3' TTTTT single-stranded linker to array surface; dsDNA, one strand shown
T1 sequence: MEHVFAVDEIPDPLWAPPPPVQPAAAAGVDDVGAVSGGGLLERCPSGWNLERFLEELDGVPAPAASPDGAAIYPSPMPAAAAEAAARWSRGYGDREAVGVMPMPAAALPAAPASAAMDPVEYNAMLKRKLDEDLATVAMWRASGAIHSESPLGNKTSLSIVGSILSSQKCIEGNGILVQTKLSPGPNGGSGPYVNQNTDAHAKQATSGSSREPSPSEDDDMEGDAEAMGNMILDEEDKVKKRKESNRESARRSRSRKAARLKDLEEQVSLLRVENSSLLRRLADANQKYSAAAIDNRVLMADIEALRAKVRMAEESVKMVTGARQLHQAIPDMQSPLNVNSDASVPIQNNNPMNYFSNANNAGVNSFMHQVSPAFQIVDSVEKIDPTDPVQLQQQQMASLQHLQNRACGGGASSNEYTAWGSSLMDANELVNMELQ
Method in brief: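 The binding signal is fluorescence intensity per feature, in arbitrary units, read on an Axon 4000B scanner. Polyhistidine- and DsRed-tagged transcription factors (N-terminal fusions) from E. coli BL21-CodonPlus were purified on Ni–NTA and applied at 200 nM for 1 h at 25 °C to a double-stranded, BSA-blocked custom Agilent array in buffer with 50 µM zinc acetate.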

Sequence	binding signal
AAATATCTTCTCGATCGGTCTACAGTTCTGTGGGTGGGGACGGAGTCACCTAGTGCAG	4120 fluorescence intensity (a.u.)
TATAGTGAGTGATGAACCTATCATCGCTTACTCCCACCACCGGAGTCACCTAGTGCAG	3980 fluorescence intensity (a.u.)
TCAGGATGTGAATGTTAATGTATGCAATGCACGCAGGCAGCGGAGTCACCTAGTGCAG	6660 fluorescence intensity (a.u.)
AAGTATGCGCTGGCAAACCATAAGTCTAGTGGGGATTCTGCGGAGTCACCTAGTGCAG	4140 fluorescence intensity (a.u.)
TAAATTCTTGTTAATACTGACGTGTTATGTTATGAGTGCACGGAGTCACCTAGTGCAG	4280 fluorescence intensity (a.u.)
TGCATGTGACCCGATCGTTGAATGCTTGAACACCGCGTGACGGAGTCACCTAGTGCAG	3280 fluorescence intensity (a.u.)
GCATGCACGGGATTAACTAGAACCACATATGCCCTCGTTGCGGAGTCACCTAGTGCAG	3430 fluorescence intensity (a.u.)
TGTGTGTGTGTGTGTGTGTGTGTGTGTGTGTGTGTGTGTGCGGAGTCACCTAGTGCAG	8180 fluorescence intensity (a.u.)
TTAATCTATTCATGAATCATGATAGGTTTCACTATATATTCGGAGTCACCTAGTGCAG	3150 fluorescence intensity (a.u.)
TCTAGTATTCTAGTGTGTATGGGCATCAGCATCCCTGGACCGGAGTCACCTAGTGCAG	3640 fluorescence intensity (a.u.)
TTAAGGGACACATGGTGTGAGTGTAGTGGTGTGTGTACGCCGGAGTCACCTAGTGCAG	3840 fluorescence intensity (a.u.)
CGAGGTTTCTGTTTGTTAATTACTTACCGTGACAGTGAGCCGGAGTCACCTAGTGCAG	3440 fluorescence intensity (a.u.)
CAGGTACCAGGTATACTAGGTATCAGGATTAGCCTATTAGCGGAGTCACCTAGTGCAG	4230 fluorescence intensity (a.u.)
CGGCGCCGGGAGCGCCGCGGTGGAGGAGGCAGAGCAGCGACGGAGTCACCTAGTGCAG	28200 fluorescence intensity (a.u.)
CTATCCGGTTTTACAGTTAAGGGTGACGAATTAGATTCGGCGGAGTCACCTAGTGCAG	3600 fluorescence intensity (a.u.)
CAAGCCTCACACTGTTTTGTTGCACGATGCGAGGTTCGCGCGGAGTCACCTAGTGCAG	3190 fluorescence intensity (a.u.)
GTACAACTCTGCATACAACGTACACATACGCGTACCAACCCGGAGTCACCTAGTGCAG	3490 fluorescence intensity (a.u.)
ATTTGTGATGTGGATTTGGGGTGTTACTTTGATTTGGGGACGGAGTCACCTAGTGCAG	5820 fluorescence intensity (a.u.)
TCAGCCATGCGCCGCTGACACGGAGGGCCCAGGAGCAAGACGGAGTCACCTAGTGCAG	3430 fluorescence intensity (a.u.)
GTATATATAGTCATTGACATCACACACACATTACGGTCATCGGAGTCACCTAGTGCAG	3580 fluorescence intensity (a.u.)
AGCATGGATCCAACAGCCTCGACATGTCAGCAAATAGTTTCGGAGTCACCTAGTGCAG	7060 fluorescence intensity (a.u.)

A stretch from the list above, as a working copy:
Sequence	binding signal
TATAGTGAGTGATGAACCTATCATCGCTTACTCCCACCACCGGAGTCACCTAGTGCAG	3980 fluorescence intensity (a.u.)
TCAGGATGTGAATGTTAATGTATGCAATGCACGCAGGCAGCGGAGTCACCTAGTGCAG	6660 fluorescence intensity (a.u.)

Additional entries

Sequence	binding signal
GGACCCATATATCATAGACACATGAGAACCCACATGTTACCGGAGTCACCTAGTGCAG	31100 fluorescence intensity (a.u.)
GCTGTGTATGCCCACTTGTAAATATAGAGGCTGATGTTTACGGAGTCACCTAGTGCAG	3690 fluorescence intensity (a.u.)
ATCCTCCATCCCGACTTCCGGGGAGCCAAGCACCATGGGTCGGAGTCACCTAGTGCAG	31900 fluorescence intensity (a.u.)
CAGCTACAACGTGGAATAGTGTCAGCGACCTAACACAGTACGGAGTCACCTAGTGCAG	5250 fluorescence intensity (a.u.)
ATACTGGACGATCTCACCACCCGCCTCGACTCCCTGTCAGCGGAGTCACCTAGTGCAG	3430 fluorescence intensity (a.u.)
GAACGCCGAGATCACGCAACCTTGCGCCAGCGCCGCTACTCGGAGTCACCTAGTGCAG	3190 fluorescence intensity (a.u.)
CAGATCAAATCCGACGGCCAGAAACGCATCGGAGCGCTGACGGAGTCACCTAGTGCAG	3200 fluorescence intensity (a.u.)
AATTACGGATACTTTGCTGATACGTATTGATACGCCCATACGGAGTCACCTAGTGCAG	3500 fluorescence intensity (a.u.)
CCTCCCGAGCCCCGGCAACAAGCTCGCCACCGCAGCGCATCGGAGTCACCTAGTGCAG	4090 fluorescence intensity (a.u.)
TCTCGCAACGTGTTTTGTGCCAGCCAAGCTCCAGCGACCCCGGAGTCACCTAGTGCAG	3160 fluorescence intensity (a.u.)
CACGTTGACTCAACAGCCACGTAGGATAAAACCGGAATTACGGAGTCACCTAGTGCAG	12600 fluorescence intensity (a.u.)
CACGTGAAGAGATTGTGTGGCGTAGCATGATATCCTTGCGCGGAGTCACCTAGTGCAG	21600 fluorescence intensity (a.u.)
ACGCAACGCAACGCAAGGCGACACTGCGCCTCGGGGAGTGCGGAGTCACCTAGTGCAG	3140 fluorescence intensity (a.u.)
CCCAGCGGCTTTCCCATCGTCGCCGGCGGCCTGGAGCTCCCGGAGTCACCTAGTGCAG	3450 fluorescence intensity (a.u.)
TCCCCTCTCTGTTGTCATCGTCTTCCTTTCCTTTCCTTTCCGGAGTCACCTAGTGCAG	3600 fluorescence intensity (a.u.)
CCGACATCGACGACAACCACGTCGGCATCGACGACAACAGCGGAGTCACCTAGTGCAG	8050 fluorescence intensity (a.u.)
TCAATTGCCGTGCCACGCGGTGCCGTGCCTCTGCCTCCCTCGGAGTCACCTAGTGCAG	5520 fluorescence intensity (a.u.)
AACAGTTGAAATAAGGTAAACTCGGTGGCATATGATAGATCGGAGTCACCTAGTGCAG	3360 fluorescence intensity (a.u.)
TATAATAAAGTAACATAAAAGTTTGGATGTATGAAAATCTCGGAGTCACCTAGTGCAG	38800 fluorescence intensity (a.u.)
TCATACTAGAATATGTCACATCCAGTCATAGATTCGTTTTCGGAGTCACCTAGTGCAG	5350 fluorescence intensity (a.u.)
CACTAAAGTCAAACCCCATGTGTAACTGCTCACACTCTTTCGGAGTCACCTAGTGCAG	3400 fluorescence intensity (a.u.)
